For three molecules, binding results are on record in PMC11196597.

Sequences of proteins named here, by UniProt entry; tags and fusion partners are left off. A change or cut given only in a name is not applied to a line headed by its entry.
UniProt P40337: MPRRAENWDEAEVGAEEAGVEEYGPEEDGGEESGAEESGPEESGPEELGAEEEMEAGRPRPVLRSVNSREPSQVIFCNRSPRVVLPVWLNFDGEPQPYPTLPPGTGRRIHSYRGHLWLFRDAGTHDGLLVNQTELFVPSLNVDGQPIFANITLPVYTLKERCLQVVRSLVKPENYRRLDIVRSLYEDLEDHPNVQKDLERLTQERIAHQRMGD

Results are given in words; binding and its absence hold for the method and conditions named. For some assays here: Binding seen in cells or lysates may run through a third protein. Some binding calls cover weakened binding; strength is not graded here. For some assays here: Where a sequence is shown, tags or fusion partners need not be part of it.

Assay [1] addresses Flag-VHL, full-length (human) (UniProt P40337). Briefly: co-IP; mapping of UBE3B regions: full-length (FL) or truncated Myc-UBE3B with VHL; cells and form of VHL not given.
The target is the same in assay [2]. In words: co-IP; mapping of VHL regions: full-length Flag-VHL or Flag-tagged acidic domain, β-domain or α-domain transiently transfected into HEK293T cells; form of UBE3B not given.
Assay [3] has the same target. Briefly: co-IP; HEK293T and HeLa cells transfected with Flag-VHL and Myc-UBE3B; IP with anti-Flag or anti-Myc antibody and protein G/A magnetic beads overnight at 4 °C; lysis buffer 10 mM Tris-HCl, 150 mM NaCl, 1 mM EDTA, 0.5% NP-40, pH 7.4.
Assay [4] addresses GST-VHL (human) (UniProt P40337). In words: pull-down; GST pull-down with purified GST-VHL (or GST alone) and purified His-UBE3B in equal amounts; beads washed five times; western blot; both purified.
Assay [5] concerns the target endogenous VHL (human (endogenous in MDA-MB-231 and T47D)) (UniProt P40337). Briefly: co-IP; endogenous proteins in MDA-MB-231 and T47D cells treated with 10 μM MG132 for 6 h before harvest; IP of UBE3B or of VHL; lysis buffer 10 mM Tris-HCl, 150 mM NaCl, 1 mM EDTA, 0.5% NP-40, pH 7.4.

B1: Myc-UBE3B, full-length (FL) (protein, UniProt Q7Z3V4 1-1068)
chain: MFTLSQTSRAWFIDRARQAREERLVQKERERAAVVIQAHVRSFLCRSRLQRDIRREIDDFFKADDPESTKRSALCIFKIARKLLFLFRIKEDNERFEKLCRSILSSMDAENEPKVWYVSLACSKDLTLLWIQQIKNILWYCCDFLKQLKPEILQDSRLITLYLTMLVTFTDTSTWKILRGKGESLRPAMNHICANIMGHLNQHGFYSVLQILLTRGLARPRPCLSKGTLTAAFSLALRPVIAAQFSDNLIRPFLIHIMSVPALVTHLSTVTPERLTVLESHDMLRKFIIFLRDQDRCRDVCESLEGCHTLCLMGNLLHLGSLSPRVLEEETDGFVSLLTQTLCYCRKYVSQKKSNLTHWHPVLGWFSQSVDYGLNESMHLITKQLQFLWGVPLIRIFFCDILSKKLLESQEPAHAQPASPQNVLPVKSLLKRAFQKSASVRNILRPVGGKRVDSAEVQKVCNICVLYQTSLTTLTQIRLQILTGLTYLDDLLPKLWAFICELGPHGGLKLFLECLNNDTEESKQLLAMLMLFCDCSRHLITILDDIEVYEEQISFKLEELVTISSFLNSFVFKMIWDGIVENAKGETLELFQSVHGWLMVLYERDCRRRFTPEDHWLRKDLKPSVLFQELDRDRKRAQLILQYIPHVIPHKNRVLLFRTMVTKEKEKLGLVETSSASPHVTHITIRRSRMLEDGYEQLRQLSQHAMKGVIRVKFVNDLGVDEAGIDQDGVFKEFLEEIIKRVFDPALNLFKTTSGDERLYPSPTSYIHENYLQLFEFVGKMLGKAVYEGIVVDVPFASFFLSQLLGHHHSVFYSSVDELPSLDSEFYKNLTSIKRYDGDITDLGLTLSYDEDVMGQLVCHELIPGGKTIPVTNENKISYIHLMAHFRMHTQIKNQTAALISGFRSIIKPEWIRMFSTPELQRLISGDNAEIDLEDLKKHTVYYGGFHGSHRVIIWLWDILASDFTPDERAMFLKFVTSCSRPPLLGFAYLKPPFSIRCVEVSDDQDTGDTLGSVLRGFFTIRKREPGGRLPTSSTCFNLLKLPNYSKKSVLREKLRYAISMNTGFELS
For B1, the binding result in assay [1], in assay [2] and in assay [3] was “binds” in each case.

B2: His-UBE3B (protein, UniProt Q7Z3V4 1-1068)
chain: B1 chain
B2: in assay [4], the binding result was “binds”.

B3: endogenous UBE3B (protein, UniProt Q7Z3V4 1-1068)
chain: B1 chain
For B3, the binding entry in assay [5] is given as “binds”.
